{"source": "paper PMC8830069", "about": "“Metallo-β-Lactamase Inhibitor Phosphonamidate Monoesters” (ACS Omega, 2022)", "system": "E. coli ATCC 25922 NDM-1", "assay": "microbe, parasite or virus in culture", "format": "cell-based", "conditions": "Escherichia coli, ATCC25922, read-out: Minimum inhibitory concentration of meropenem", "description": "The in vitro susceptibility of meropenem in combination with the different compounds was evaluated against E. coli expressing NDM-1 in a broth microdilution assay. A 96-well plate was prepared with the compounds in a twofold dilution series (final concentrations 1024–0.5 mg/L) in Muller Hinton II broth (MHB-II) in combination with 2, 4, or 8 mg/L meropenem. EDTA (100 μM) was used in combination with meropenem as control for inhibition of NDM-1. Three–five colonies of E. coli ATCC 25922 NDM-1 were suspended in 0.90% saline solution and adjusted to the 0.5 McFarland turbidity standard. The bacterial suspension was diluted in MHB-II and adjusted to a final inoculum of 5 × 10^5 CFU/mL.", "data": [{"smiles": "C[C@@H](O)[C@H]1C(=O)N2C(C(=O)O)=C(S[C@@H]3CN[C@H](C(=O)N(C)C)C3)[C@H](C)[C@H]12", "note": "[Meropenem, meropenem]", "values": [{"measurement": "MIC", "value": 32, "unit": "mg/L"}]}]}
